# From the supplement of paper PMC8728848
# This is one part of the list.
# Tests used:
# Assay in all cases: glycan array binding signal (z-score within array); higher = stronger binding
# Details in all cases: glycan notation: IUPAC condensed, linker removed; mutation: D21K
# [1] = target: GlcNAc(b1-2)Man(a1-3)[GlcNAc(b1-2)Man(a1-6)]Man(b1-4)GlcNAc(b1-4)[Fuc(a1-6)]GlcNAc
# Method in brief: (§1)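 The Consortium for Functional Glycomics database supplied 3228 glycan arrays, of which those lacking an available protein sequence were dropped. The binding signal, a within-array Z-score, was averaged across arrays of the same protein sequence and across linkers. Negative scores can be read as non-binding.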
# [2] = target: GlcNAc(b1-2)Man(a1-3)[GlcNAc(b1-4)][GlcNAc(b1-2)Man(a1-6)]Man(b1-4)GlcNAc(b1-4)GlcNAc
# Method in brief: as §1
# [3] = target: GlcNAc(b1-2)Man(a1-3)[GlcNAc(b1-4)][GlcNAc(b1-2)Man(a1-6)]Man(b1-4)GlcNAc(b1-4)[Fuc(a1-6)]GlcNAc
# Method in brief: as §1
# [4] = target: GlcNAc(b1-2)[GlcNAc(b1-4)]Man(a1-3)[GlcNAc(b1-2)Man(a1-6)]Man(b1-4)GlcNAc(b1-4)GlcNAc
# Method in brief: as §1
# [5] = target: GlcNAc(b1-2)[GlcNAc(b1-4)]Man(a1-3)[GlcNAc(b1-4)][GlcNAc(b1-2)Man(a1-6)]Man(b1-4)GlcNAc(b1-4)GlcNAc
# Method in brief: as §1
# [6] = target: GlcNAc(b1-2)[GlcNAc(b1-4)]Man(a1-3)[GlcNAc(b1-4)][GlcNAc(b1-2)[GlcNAc(b1-6)]Man(a1-6)]Man(b1-4)GlcNAc(b1-4)GlcNAc
# Method in brief: as §1
# [7] = target: GlcNAc(b1-2)[GlcNAc(b1-4)]Man(a1-3)[GlcNAc(b1-4)][GlcNAc(b1-2)[GlcNAc(b1-6)]Man(a1-6)]Man(b1-4)GlcNAc(b1-4)[Fuc(a1-6)]GlcNAc
# Method in brief: as §1
# [8] = target: GlcNAc(b1-2)[GlcNAc(b1-6)]Man(a1-6)[GlcNAc(b1-2)Man(a1-3)]Man(b1-4)GlcNAc(b1-4)GlcNAc
# Method in brief: as §1
# [9] = target: GlcNAc(b1-2)[GlcNAc(b1-6)]Man(a1-6)[GlcNAc(b1-2)Man(a1-3)]Man(b1-4)GlcNAc(b1-4)[Fuc(a1-6)]GlcNAc
# Method in brief: as §1
# [10] = target: GlcNAc(b1-2)[GlcNAc(b1-6)]Man(a1-6)[GlcNAc(b1-4)][GlcNAc(b1-2)Man(a1-3)]Man(b1-4)GlcNAc(b1-4)GlcNAc
# Method in brief: as §1
# [11] = target: GlcNAc(b1-3)Fuc
# Method in brief: as §1
# [12] = target: GlcNAc(b1-3)Gal
# Method in brief: as §1
# [13] = target: GlcNAc(b1-3)Gal(b1-3)GalNAc
# Method in brief: as §1
# [14] = target: GlcNAc(b1-3)Gal(b1-4)Glc
# Method in brief: as §1
# [15] = target: GlcNAc(b1-3)Gal(b1-4)GlcNAc
# Method in brief: as §1
# [16] = target: GlcNAc(b1-3)Gal(b1-4)GlcNAc(b1-2)Man(a1-3)[GlcNAc(b1-3)Gal(b1-4)GlcNAc(b1-2)Man(a1-6)]Man(b1-4)GlcNAc(b1-4)GlcNAc
# Method in brief: as §1
# [17] = target: GlcNAc(b1-3)Gal(b1-4)GlcNAc(b1-2)Man(a1-3)[GlcNAc(b1-3)Gal(b1-4)GlcNAc(b1-2)Man(a1-6)]Man(b1-4)GlcNAc(b1-4)[Fuc(a1-6)]GlcNAc
# Method in brief: as §1
# [18] = target: GlcNAc(b1-3)Gal(b1-4)GlcNAc(b1-2)[GlcNAc(b1-3)Gal(b1-4)GlcNAc(b1-6)]Man(a1-6)[GlcNAc(b1-3)Gal(b1-4)GlcNAc(b1-2)Man(a1-3)]Man(b1-4)GlcNAc(b1-4)GlcNAc
# Method in brief: as §1
# [19] = target: GlcNAc(b1-3)Gal(b1-4)GlcNAc(b1-3)Gal(b1-4)GlcNAc
# Method in brief: as §1
# [20] = target: GlcNAc(b1-3)Gal(b1-4)GlcNAc(b1-3)Gal(b1-4)GlcNAc(b1-2)Man(a1-3)[GlcNAc(b1-3)Gal(b1-4)GlcNAc(b1-3)Gal(b1-4)GlcNAc(b1-2)Man(a1-6)]Man(b1-4)GlcNAc(b1-4)GlcNAc
# Method in brief: as §1
# [21] = target: GlcNAc(b1-3)Gal(b1-4)GlcNAc(b1-3)Gal(b1-4)GlcNAc(b1-2)Man(a1-3)[GlcNAc(b1-3)Gal(b1-4)GlcNAc(b1-3)Gal(b1-4)GlcNAc(b1-2)Man(a1-6)]Man(b1-4)GlcNAc(b1-4)[Fuc(a1-6)]GlcNAc
# Method in brief: as §1
# [22] = target: GlcNAc(b1-3)Gal(b1-4)GlcNAc(b1-3)Gal(b1-4)GlcNAc(b1-2)[GlcNAc(b1-3)Gal(b1-4)GlcNAc(b1-3)Gal(b1-4)GlcNAc(b1-6)]Man(a1-6)[GlcNAc(b1-3)Gal(b1-4)GlcNAc(b1-3)Gal(b1-4)GlcNAc(b1-2)Man(a1-3)]Man(b1-4)GlcNAc(b1-4)[Fuc(a1-6)]GlcNAc
# Method in brief: as §1
# [23] = target: GlcNAc(b1-3)Gal(b1-4)GlcNAc(b1-3)Gal(b1-4)GlcNAc(b1-3)Gal(b1-4)GlcNAc(b1-2)Man(a1-3)[GlcNAc(b1-3)Gal(b1-4)GlcNAc(b1-3)Gal(b1-4)GlcNAc(b1-3)Gal(b1-4)GlcNAc(b1-2)Man(a1-6)]Man(b1-4)GlcNAc(b1-4)GlcNAc
# Method in brief: as §1
# [24] = target: GlcNAc(b1-3)Gal(b1-4)GlcNAc(b1-3)Gal(b1-4)GlcNAc(b1-3)Gal(b1-4)GlcNAc(b1-2)Man(a1-3)[GlcNAc(b1-3)Gal(b1-4)GlcNAc(b1-3)Gal(b1-4)GlcNAc(b1-3)Gal(b1-4)GlcNAc(b1-2)Man(a1-6)]Man(b1-4)GlcNAc(b1-4)[Fuc(a1-6)]GlcNAc
# Method in brief: as §1
# [25] = target: GlcNAc(b1-3)Gal(b1-4)GlcNAc(b1-3)Gal(b1-4)GlcNAc(b1-3)Gal(b1-4)GlcNAc(b1-2)[GlcNAc(b1-3)Gal(b1-4)GlcNAc(b1-3)Gal(b1-4)GlcNAc(b1-3)Gal(b1-4)GlcNAc(b1-6)]Man(a1-6)[GlcNAc(b1-3)Gal(b1-4)GlcNAc(b1-3)Gal(b1-4)GlcNAc(b1-3)Gal(b1-4)GlcNAc(b1-2)Man(a1-3)]Man(b1-4)GlcNAc(b1-4)[Fuc(a1-6)]GlcNAc
# Method in brief: as §1
# [26] = target: GlcNAc(b1-3)Gal(b1-4)GlcNAc(b1-3)Gal(b1-4)GlcNAc(b1-3)Gal(b1-4)GlcNAc(b1-3)Gal(b1-4)GlcNAc(b1-2)Man(a1-3)[GlcNAc(b1-3)Gal(b1-4)GlcNAc(b1-3)Gal(b1-4)GlcNAc(b1-3)Gal(b1-4)GlcNAc(b1-3)Gal(b1-4)GlcNAc(b1-2)Man(a1-6)]Man(b1-4)GlcNAc(b1-4)GlcNAc
# Method in brief: as §1
# [27] = target: GlcNAc(b1-3)Gal(b1-4)GlcNAc(b1-3)Gal(b1-4)GlcNAc(b1-3)Gal(b1-4)GlcNAc(b1-3)Gal(b1-4)GlcNAc(b1-2)Man(a1-3)[GlcNAc(b1-3)Gal(b1-4)GlcNAc(b1-3)Gal(b1-4)GlcNAc(b1-3)Gal(b1-4)GlcNAc(b1-3)Gal(b1-4)GlcNAc(b1-2)Man(a1-6)]Man(b1-4)GlcNAc(b1-4)[Fuc(a1-6)]GlcNAc
# Method in brief: as §1
binder,measurement,setting,value
KILRGVCKKIMRTFLRRISKKILTGKK [C7A (Sus scrofa)],glycan array binding signal (z-score),[1],-0.077
same,glycan array binding signal (z-score),[2],1.49
same,glycan array binding signal (z-score),[3],-0.3
same,glycan array binding signal (z-score),[4],0.556
same,glycan array binding signal (z-score),[5],0.383
same,glycan array binding signal (z-score),[6],0.206
same,glycan array binding signal (z-score),[7],-0.801
same,glycan array binding signal (z-score),[8],-0.74
same,glycan array binding signal (z-score),[9],-0.103
same,glycan array binding signal (z-score),[10],-0.656
same,glycan array binding signal (z-score),[11],-1.1
same,glycan array binding signal (z-score),[12],-1.53
same,glycan array binding signal (z-score),[13],-0.399
same,glycan array binding signal (z-score),[14],-0.83
same,glycan array binding signal (z-score),[15],-0.565
same,glycan array binding signal (z-score),[16],-0.861
same,glycan array binding signal (z-score),[17],1.47
same,glycan array binding signal (z-score),[18],-0.983
same,glycan array binding signal (z-score),[19],-0.763
same,glycan array binding signal (z-score),[20],1.46
same,glycan array binding signal (z-score),[21],2.43
same,glycan array binding signal (z-score),[22],1.7
same,glycan array binding signal (z-score),[23],1
same,glycan array binding signal (z-score),[24],1.49
same,glycan array binding signal (z-score),[25],2.39
same,glycan array binding signal (z-score),[26],1.54
same,glycan array binding signal (z-score),[27],-0.881

# Exported as tab-separated lines: part of the list above
binder	measurement	setting	value
KILRGVCKKIMRTFLRRISKKILTGKK [C7A (Sus scrofa)]	glycan array binding signal (z-score)	[26]	1.54
same	glycan array binding signal (z-score)	[27]	-0.881
